Reference: US20160101067A1, “SUPRAMOLECULAR COMPLEXES OF POLYANIONIC POLYMERS AND SPERMIDINE IN TISSUE MAINTENANCE AND REPAIR” (TIXUPHARMA, priority 2013, published 2016)
For at least one compound, name, drawing or mass did not settle the structure.

Tested on: atrophic vaginitis in postmenopausal women
Test: Non-inferiority of HA-Spd vs estradiol in vaginal atrophy
Assay type: in vivo, human
[1] = every 2 days during 8 weeks, early data

Which “epithelial atrophy after treatment” value [1] does the source give for `C[C@]12CC[C@@H]3c4ccc(O)cc4CC[C@H]3[C@@H]1CC[C@@H]2O` [estradiol] here?
Its value is “decrease”.

And the “subjective symptoms after treatment” value [1]?
Its value is “decrease”.

And the “vaginal maturation values after treatment” value [1]?
Its value is “improved”.

What about the “vaginal pH after treatment” value [1] of the same compound?
The value was “decrease”.

And the “vaginal maturation values, comparison of the groups” value (group I estradiol, group II HA-Spd gel)?
The value was “higher in group I compared to group II”.
